The supplement of paper PMC12067093, “Discovery and optimisation of a covalent ligand for TRIM25 and its application to targeted protein ubiquitination” (Chemical Science, 2025)
The list shows a part of the results.

Amino acid sequences for entries named in this document (tags omitted). A change or cut given only in a name is not applied to a line headed by its entry.
UniProt P40926: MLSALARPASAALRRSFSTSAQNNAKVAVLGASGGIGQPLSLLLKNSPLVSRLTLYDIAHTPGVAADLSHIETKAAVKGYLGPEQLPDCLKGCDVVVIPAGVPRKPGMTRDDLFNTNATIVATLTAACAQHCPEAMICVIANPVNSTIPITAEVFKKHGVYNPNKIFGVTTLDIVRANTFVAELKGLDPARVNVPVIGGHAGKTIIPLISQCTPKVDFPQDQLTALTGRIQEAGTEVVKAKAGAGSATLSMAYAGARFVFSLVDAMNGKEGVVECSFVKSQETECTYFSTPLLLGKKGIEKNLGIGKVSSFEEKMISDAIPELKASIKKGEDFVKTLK
UniProt P33991: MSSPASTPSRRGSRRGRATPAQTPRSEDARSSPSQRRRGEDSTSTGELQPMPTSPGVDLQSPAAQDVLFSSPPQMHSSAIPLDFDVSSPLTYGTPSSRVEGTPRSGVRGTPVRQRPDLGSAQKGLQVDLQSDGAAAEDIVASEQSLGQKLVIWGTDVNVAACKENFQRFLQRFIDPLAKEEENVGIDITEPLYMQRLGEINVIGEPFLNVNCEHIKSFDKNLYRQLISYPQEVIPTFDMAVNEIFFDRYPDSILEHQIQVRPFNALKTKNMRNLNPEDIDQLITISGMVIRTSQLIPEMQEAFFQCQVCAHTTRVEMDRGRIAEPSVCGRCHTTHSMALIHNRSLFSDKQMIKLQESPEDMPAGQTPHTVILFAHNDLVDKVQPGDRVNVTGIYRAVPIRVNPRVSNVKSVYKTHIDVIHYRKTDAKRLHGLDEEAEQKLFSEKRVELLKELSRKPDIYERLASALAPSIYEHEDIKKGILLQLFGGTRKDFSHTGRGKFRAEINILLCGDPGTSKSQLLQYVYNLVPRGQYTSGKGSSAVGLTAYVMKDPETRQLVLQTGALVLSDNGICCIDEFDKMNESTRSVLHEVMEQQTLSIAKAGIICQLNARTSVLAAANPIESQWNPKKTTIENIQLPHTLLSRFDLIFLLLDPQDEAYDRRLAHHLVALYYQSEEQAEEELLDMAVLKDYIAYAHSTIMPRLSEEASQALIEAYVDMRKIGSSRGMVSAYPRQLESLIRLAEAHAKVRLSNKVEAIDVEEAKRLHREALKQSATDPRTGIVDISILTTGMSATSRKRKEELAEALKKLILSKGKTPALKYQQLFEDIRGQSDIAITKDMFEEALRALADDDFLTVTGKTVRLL
UniProt O60244: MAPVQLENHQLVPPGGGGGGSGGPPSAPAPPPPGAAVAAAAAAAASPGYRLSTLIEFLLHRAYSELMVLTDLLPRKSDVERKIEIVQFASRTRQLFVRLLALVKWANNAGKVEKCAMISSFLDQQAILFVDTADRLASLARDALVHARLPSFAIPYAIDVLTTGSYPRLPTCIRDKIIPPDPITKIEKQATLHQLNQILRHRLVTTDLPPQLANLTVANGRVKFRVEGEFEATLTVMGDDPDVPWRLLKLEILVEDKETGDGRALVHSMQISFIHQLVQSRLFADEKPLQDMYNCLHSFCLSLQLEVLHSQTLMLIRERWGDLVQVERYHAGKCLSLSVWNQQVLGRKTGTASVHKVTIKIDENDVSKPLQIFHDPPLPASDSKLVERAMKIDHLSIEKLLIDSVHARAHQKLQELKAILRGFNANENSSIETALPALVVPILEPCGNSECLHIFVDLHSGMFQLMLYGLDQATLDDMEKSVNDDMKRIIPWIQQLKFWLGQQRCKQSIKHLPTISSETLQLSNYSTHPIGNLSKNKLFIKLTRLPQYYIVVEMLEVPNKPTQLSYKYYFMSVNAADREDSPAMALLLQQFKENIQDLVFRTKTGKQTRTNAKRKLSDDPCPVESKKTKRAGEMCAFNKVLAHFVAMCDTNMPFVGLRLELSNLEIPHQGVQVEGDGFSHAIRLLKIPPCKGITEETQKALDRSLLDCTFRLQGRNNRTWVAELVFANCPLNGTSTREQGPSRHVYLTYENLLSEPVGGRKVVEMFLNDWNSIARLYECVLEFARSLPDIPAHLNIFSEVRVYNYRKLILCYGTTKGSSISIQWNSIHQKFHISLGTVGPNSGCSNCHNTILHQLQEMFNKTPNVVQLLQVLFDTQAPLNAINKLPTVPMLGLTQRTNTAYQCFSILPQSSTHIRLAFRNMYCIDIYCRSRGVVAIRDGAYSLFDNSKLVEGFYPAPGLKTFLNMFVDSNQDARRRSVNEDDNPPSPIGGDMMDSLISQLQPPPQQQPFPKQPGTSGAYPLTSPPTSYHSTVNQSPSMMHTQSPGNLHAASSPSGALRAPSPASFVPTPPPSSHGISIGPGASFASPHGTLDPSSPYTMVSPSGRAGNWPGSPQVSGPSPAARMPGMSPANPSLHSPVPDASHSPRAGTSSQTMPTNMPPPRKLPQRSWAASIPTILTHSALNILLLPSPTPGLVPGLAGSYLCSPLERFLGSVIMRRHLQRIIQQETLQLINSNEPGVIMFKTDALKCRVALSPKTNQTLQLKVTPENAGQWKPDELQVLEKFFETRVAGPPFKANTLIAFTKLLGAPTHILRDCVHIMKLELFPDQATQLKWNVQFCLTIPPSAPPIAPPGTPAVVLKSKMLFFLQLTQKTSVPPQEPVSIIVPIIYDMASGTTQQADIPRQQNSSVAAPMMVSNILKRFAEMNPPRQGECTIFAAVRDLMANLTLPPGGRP
UniProt Q9HCE5: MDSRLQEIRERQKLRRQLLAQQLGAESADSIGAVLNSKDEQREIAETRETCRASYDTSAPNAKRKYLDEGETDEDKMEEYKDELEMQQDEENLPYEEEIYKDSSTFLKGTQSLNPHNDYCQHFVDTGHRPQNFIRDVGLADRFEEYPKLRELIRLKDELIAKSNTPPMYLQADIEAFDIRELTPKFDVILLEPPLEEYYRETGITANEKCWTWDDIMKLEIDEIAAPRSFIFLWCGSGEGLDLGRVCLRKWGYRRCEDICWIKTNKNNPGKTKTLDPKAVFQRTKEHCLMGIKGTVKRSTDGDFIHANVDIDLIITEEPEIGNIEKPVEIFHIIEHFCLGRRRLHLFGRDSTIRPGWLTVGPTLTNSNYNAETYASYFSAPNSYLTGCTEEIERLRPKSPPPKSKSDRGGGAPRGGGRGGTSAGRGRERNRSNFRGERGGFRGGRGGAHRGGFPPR
UniProt P25205: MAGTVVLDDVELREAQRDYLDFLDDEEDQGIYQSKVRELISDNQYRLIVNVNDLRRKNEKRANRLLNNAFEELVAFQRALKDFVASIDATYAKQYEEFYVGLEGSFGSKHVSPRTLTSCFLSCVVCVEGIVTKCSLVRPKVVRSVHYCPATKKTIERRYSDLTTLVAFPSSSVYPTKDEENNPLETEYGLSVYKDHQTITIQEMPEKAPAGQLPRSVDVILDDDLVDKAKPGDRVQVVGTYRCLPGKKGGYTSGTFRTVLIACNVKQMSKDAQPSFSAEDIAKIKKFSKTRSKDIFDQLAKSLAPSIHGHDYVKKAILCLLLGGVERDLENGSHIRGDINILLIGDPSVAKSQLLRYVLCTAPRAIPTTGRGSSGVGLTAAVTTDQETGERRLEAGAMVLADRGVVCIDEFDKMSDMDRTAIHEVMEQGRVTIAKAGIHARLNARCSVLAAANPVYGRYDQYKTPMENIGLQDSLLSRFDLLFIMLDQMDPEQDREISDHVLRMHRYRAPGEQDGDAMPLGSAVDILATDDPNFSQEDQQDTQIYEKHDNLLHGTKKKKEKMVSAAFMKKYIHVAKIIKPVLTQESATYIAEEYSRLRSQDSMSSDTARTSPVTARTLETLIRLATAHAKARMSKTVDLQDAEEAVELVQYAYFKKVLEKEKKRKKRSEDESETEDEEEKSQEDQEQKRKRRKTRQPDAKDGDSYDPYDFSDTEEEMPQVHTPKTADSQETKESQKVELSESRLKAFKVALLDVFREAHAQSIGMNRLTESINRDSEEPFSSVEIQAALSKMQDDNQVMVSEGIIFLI
UniProt Q96RQ3: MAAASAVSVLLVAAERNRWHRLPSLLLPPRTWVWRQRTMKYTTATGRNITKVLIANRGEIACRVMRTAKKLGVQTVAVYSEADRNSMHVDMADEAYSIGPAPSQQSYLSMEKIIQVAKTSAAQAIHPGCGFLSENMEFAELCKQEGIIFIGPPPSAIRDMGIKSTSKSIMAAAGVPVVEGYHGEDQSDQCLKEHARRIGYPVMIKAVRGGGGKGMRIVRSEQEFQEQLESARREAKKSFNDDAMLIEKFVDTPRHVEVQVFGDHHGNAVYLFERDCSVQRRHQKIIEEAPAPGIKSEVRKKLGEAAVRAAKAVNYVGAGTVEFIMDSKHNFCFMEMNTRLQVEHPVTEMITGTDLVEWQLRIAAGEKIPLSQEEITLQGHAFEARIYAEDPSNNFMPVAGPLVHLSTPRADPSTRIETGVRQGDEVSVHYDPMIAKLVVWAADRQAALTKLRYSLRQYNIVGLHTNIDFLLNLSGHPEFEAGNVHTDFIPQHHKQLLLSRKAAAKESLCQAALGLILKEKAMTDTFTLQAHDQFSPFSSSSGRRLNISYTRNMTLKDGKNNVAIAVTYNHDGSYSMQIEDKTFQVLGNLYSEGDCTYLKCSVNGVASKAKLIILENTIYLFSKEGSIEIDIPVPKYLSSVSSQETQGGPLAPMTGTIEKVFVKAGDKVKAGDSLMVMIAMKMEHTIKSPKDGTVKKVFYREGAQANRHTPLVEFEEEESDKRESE
UniProt P50579: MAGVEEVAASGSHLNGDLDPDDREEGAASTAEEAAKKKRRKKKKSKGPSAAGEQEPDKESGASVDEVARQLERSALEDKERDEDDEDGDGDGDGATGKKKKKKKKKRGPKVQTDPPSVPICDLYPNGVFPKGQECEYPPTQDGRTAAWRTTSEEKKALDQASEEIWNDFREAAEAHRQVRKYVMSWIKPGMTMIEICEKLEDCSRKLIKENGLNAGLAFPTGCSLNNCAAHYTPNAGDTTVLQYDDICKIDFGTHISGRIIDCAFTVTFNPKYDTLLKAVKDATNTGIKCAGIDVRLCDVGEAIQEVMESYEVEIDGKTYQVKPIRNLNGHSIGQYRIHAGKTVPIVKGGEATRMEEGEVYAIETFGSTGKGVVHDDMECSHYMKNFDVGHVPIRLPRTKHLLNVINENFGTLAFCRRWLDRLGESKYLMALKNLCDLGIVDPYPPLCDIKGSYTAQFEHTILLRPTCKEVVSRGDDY
UniProt P33992: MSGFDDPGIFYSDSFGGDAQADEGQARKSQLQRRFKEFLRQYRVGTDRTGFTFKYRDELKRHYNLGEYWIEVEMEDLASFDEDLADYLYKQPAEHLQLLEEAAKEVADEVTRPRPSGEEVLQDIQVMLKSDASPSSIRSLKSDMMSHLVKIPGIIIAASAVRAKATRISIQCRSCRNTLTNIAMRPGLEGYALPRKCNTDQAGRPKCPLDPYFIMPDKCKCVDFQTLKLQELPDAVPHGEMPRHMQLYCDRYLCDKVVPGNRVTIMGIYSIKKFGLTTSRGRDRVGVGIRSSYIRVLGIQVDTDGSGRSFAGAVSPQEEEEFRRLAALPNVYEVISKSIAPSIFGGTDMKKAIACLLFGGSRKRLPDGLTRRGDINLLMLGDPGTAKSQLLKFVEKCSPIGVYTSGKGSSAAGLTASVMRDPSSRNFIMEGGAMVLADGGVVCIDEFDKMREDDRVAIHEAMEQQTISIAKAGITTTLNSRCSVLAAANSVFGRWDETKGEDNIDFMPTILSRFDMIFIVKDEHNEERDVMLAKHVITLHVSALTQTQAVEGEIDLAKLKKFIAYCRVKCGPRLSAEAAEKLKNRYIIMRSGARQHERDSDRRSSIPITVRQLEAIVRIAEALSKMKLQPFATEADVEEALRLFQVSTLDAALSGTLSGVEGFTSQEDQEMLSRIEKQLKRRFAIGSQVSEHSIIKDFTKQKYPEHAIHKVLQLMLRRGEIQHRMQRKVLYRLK
UniProt Q9BTE3: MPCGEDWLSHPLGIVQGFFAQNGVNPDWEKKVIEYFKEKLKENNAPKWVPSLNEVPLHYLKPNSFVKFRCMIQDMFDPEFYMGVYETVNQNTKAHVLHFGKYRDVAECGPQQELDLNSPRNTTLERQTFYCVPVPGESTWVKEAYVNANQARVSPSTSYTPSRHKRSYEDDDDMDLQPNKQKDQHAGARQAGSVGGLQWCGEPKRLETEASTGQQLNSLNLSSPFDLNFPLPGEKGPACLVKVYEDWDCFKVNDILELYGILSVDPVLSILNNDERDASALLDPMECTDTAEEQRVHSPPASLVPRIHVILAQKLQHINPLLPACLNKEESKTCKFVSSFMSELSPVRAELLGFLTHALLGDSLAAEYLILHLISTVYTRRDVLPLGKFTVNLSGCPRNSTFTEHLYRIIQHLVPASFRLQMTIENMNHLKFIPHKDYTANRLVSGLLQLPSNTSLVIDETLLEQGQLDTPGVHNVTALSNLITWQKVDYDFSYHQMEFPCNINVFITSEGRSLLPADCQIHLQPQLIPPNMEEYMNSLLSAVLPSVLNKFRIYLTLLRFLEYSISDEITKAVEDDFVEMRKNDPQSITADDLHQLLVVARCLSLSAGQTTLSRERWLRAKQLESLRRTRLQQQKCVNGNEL

Compound: CC1Cc2ccccc2N1C(=O)C1CCCN(C1)C(=O)CCl (mixture of isomers) [TRIM25 ligand 11 (diastereomer mixture)]
Experiment: probe-labelled cysteine peptide fold change vs DMSO (competition) (log2 fold change); higher = less target engagement (more negative = stronger competition)
Settings: THP-1, incubation time: 4 h
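Further: competitive chemoproteomic profiling in live THP-1 cells with an iodoacetamide desthiobiotin (IA-DTB) probe, comparing probe-labelled peptide intensities in compound-treated cells against DMSO-treated controls.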

Target | probe-labelled cysteine peptide fold change (10 µM) | probe-labelled cysteine peptide fold change (50 µM)
MBTD1_Q05BQ5_78_FCSVSCSR (UniProt Q05BQ5) | -0.095 | 0.0391
MDH2_P40926_285_SQETECTYFSTPLLLGK (UniProt P40926) | -0.0818 | -0.0395
METAP1_P53582_255_KLVQTTYECLMQAIDAVKPGVR (UniProt P53582) | -0.564 | -0.516
MCM2_P49736_522_GDINVLLCGDPGTAK (UniProt P49736) | 0.0421 | -0.0432
METTL13_Q8N6R0_652_RIEGEVNEILFCQLHPEQK (UniProt Q8N6R0) | 0.0307 | 0.221
MED1_Q15648_489_GLSDALICTDDFIAK (UniProt Q15648) | -0.0974 | -0.079
MCM2_P49736_223_ISDMCK (UniProt P49736) | -0.114 | -0.146
MDH1_P40925_137_VIVVGNPANTNCLTASK (UniProt P40925) | 0.00719 | -0.0592
MED13_Q9UHV7_681_NQCLSAIASDAEQEPK (UniProt Q9UHV7) | 0.292 | -0.0394
MCM4_P33991_328_IAEPSVCGR (UniProt P33991) | -0.0359 | 0.124
METTL7B_Q6UX53_203_HIGDGCCLTR (UniProt Q6UX53) | 0.0339 | -0.00446
MDN1_Q9NU22_2816_LVVECFSQLK (UniProt Q9NU22) | 0.101 | 0.0652
MCM3AP_O60318_588_AHQFEGDSFDSASEGSEGLGPCVLSLSTLIGTVAETSK (UniProt O60318) | -0.101 | -0.204
MDC1_Q14676_26_CNVEPVGR (UniProt Q14676) | 0.0176 | -0.174
MEPCE_Q7L2J0_463_GRDVLDLGCNVGHLTLSIACK (UniProt Q7L2J0) | 0.0673 | -0.0667
MGA_Q8IWI9_1071_RQPAHCR (UniProt Q8IWI9) | -0.0749 | 0.0395
MED15_Q96RN5_618_QQYLCQPLLDAVLANIR (UniProt Q96RN5) | -0.00606 | 0.36
MCM6_Q14566_91_VYPYLCR (UniProt Q14566) | 0.0405 | 0.156
MED14_O60244_635_AGEMCAFNK (UniProt O60244) | -0.0268 | -0.0566
METAP1_P53582_194+202_SCCTSVNEVICHGIPDR (UniProt P53582) | 0.285 | 0.221
MFSD2A_Q8NA29_531_ALQALRDEASSSGCSETDSTELASIL (UniProt Q8NA29) | -0.143 | -0.539
MCM6_Q14566_242_AEAVESAQAGDKCDFTGTLIVVPDVSK (UniProt Q14566) | -0.114 | -0.0827

Target | probe-labelled cysteine peptide fold change (10 µM) | probe-labelled cysteine peptide fold change (50 µM)
MCM3AP_O60318_931_DCEEATDFLTCHGLTVSDGCVELNR (UniProt O60318) | 0.0707 | -0.2
ME3_Q16798_145_FMPIVYTPTVGLACQHYGLTFR (UniProt Q16798) | 0.131 | 0.131
MCM4_P33991_509_AEINILLCGDPGTSK (UniProt P33991) | -0.0724 | 0.0734
MCM6_Q14566_180_YTQPNICR (UniProt Q14566) | -0.0548 | 0.062
MDN1_Q9NU22_3308_LDNLTCHLLK (UniProt Q9NU22) | 0.0686 | 0.129
MCM2_P49736_406_DAILLADLVDSCK (UniProt P49736) | 0.14 | 0.0471
METTL14_Q9HCE5_256+260_CEDICWIK (UniProt Q9HCE5) | -0.0382 | -0.0762
MCM3_P25205_407_GVVCIDEFDK (UniProt P25205) | -0.155 | -0.244
MFAP3_P55082_73_EGTSVSIECLLTASHYEDVHWHNSK (UniProt P55082) | 0.179 | 0.0374
MESD_Q14696_180_CADVTLEGQVYPGK (UniProt Q14696) | -0.0104 | -0.0213
MCCC1_Q96RQ3_600_CSVNGVASK (UniProt Q96RQ3) | 0.0764 | 0.152
METAP1_P53582_255_LVQTTYECLMQAIDAVK (UniProt P53582) | 0.0988 | 0.265
MCM4_P33991_309_TSQLIPEMQEAFFQCQVCAHTTR (UniProt P33991) | -0.0176 | 0.177
MEPCE_Q7L2J0_419_KFQYGNYCK (UniProt Q7L2J0) | -0.0656 | -0.123
MCM3AP_O60318_1945_EQLQLSEATGTCLGER (UniProt O60318) | 0.0797 | 0.129
MEF2D_Q14814_41_AYELSVLCDCEIALIIFNHSNK (UniProt Q14814) | -0.0556 | 0.427
METAP1_P53582_22_LQCPTCIK (UniProt P53582) | 0.0363 | 0.151
MCM2_P49736_315_TSGVVTSCTGVLPQLSMVK (UniProt P49736) | 0.161 | -0.0664
METAP2_P50579_448_NLCDLGIVDPYPPLCDIK (UniProt P50579) | 0.172 | 0.214
MEFV_O15553_315+327_CHAQEGDPVDGTCVR (UniProt O15553) | 0.0356 | -0.404
MCM5_P33992_221_CVDFQTLK (UniProt P33992) | -0.0141 | 0.0951
MCM6_Q14566_242_CDFTGTLIVVPDVSK (UniProt Q14566) | 0.132 | -0.00888

Target | probe-labelled cysteine peptide fold change (10 µM) | probe-labelled cysteine peptide fold change (50 µM)
METTL7B_Q6UX53_79+92_VALLELGCGTGANFQFYPPGCR (UniProt Q6UX53) | -0.0513 | -0.314
METTL13_Q8N6R0_39_AFEWYGTYLELCGVLHK (UniProt Q8N6R0) | 0.117 | 0.173
MCTS1_Q9ULC4_55_CHEHIEILTVNGELLFFR (UniProt Q9ULC4) | 0.0262 | 0.119
MCM2_P49736_584_GVCLIDEFDK (UniProt P49736) | 0.102 | 0.0268
METTL3_Q86U44_500_GNPQGFNQGLDCDVIVAEVR (UniProt Q86U44) | -0.0498 | -0.0432
METAP1_P53582_368_SAQFEHTLLVTDTGCEILTR (UniProt P53582) | 0.0332 | -0.0153
MED23_Q9ULK4_284_DMVCNMLGLNK (UniProt Q9ULK4) | 0.0384 | 0.326
MEMO1_Q9Y316_244_KYHNTICGR (UniProt Q9Y316) | -0.0183 | 0.17
MCM7_P33993_566_RYIAMCR (UniProt P33993) | -0.0636 | -0.0165
MCM6_Q14566_161_THPVHPELVSGTFLCLDCQTVIRDVEQQFK (UniProt Q14566) | -0.319 | 0.0688
MCM7_P33993_378_GNINICLMGDPGVAK (UniProt P33993) | -0.107 | -0.127
METAP2_P50579_416_HLLNVINENFGTLAFCR (UniProt P50579) | -0.0483 | -0.0481
MCMBP_Q9BTE3_396_FTVNLSGCPR (UniProt Q9BTE3) | 0.0635 | 0.0908
ME1_P48163_240_YGMNCLIQFEDFANVNAFR (UniProt P48163) | 0.11 | 0.112
MEPCE_Q7L2J0_419_FQYGNYCK (UniProt Q7L2J0) | 0.0499 | -0.0304
MDH2_P40926_212_TIIPLISQCTPK (UniProt P40926) | -0.0535 | -0.102
MELTF_P08582_216_CLAEGAGDVAFVK (UniProt P08582) | -0.159 | -0.0352
METTL14_Q9HCE5_120_GTQSLNPHNDYCQHFVDTGHRPQNFIR (UniProt Q9HCE5) | 0.0663 | 0.095
MCM3_P25205_319_KAILCLLLGGVER (UniProt P25205) | -0.356 | -0.177
MCM6_Q14566_721_LGFSEYCR (UniProt Q14566) | 0.0954 | 0.111
MCMBP_Q9BTE3_602_CLSLSAGQTTLSR (UniProt Q9BTE3) | 0.0958 | -0.0789
MEPCE_Q7L2J0_452+463_GRDVLDLGCNVGHLTLSIACK (UniProt Q7L2J0) | 0.177 | 0.0445

Target | probe-labelled cysteine peptide fold change (10 µM) | probe-labelled cysteine peptide fold change (50 µM)
MDH2_P40926_93_GCDVVVIPAGVPR (UniProt P40926) | -0.0615 | 0.0728
MCM3_P25205_263_TVLIACNVK (UniProt P25205) | -0.0626 | 0.0397
METAP1_P53582_174_EVLDVAAGMIKPGVTTEEIDHAVHLACIAR (UniProt P53582) | -0.148 | 0.0551
MCCC1_Q96RQ3_509_ESLCQAALGLILK (UniProt Q96RQ3) | 0.292 | -0.195
MEFV_O15553_332_DSCSFPEAVSGHPQASGSR (UniProt O15553) | 0.0103 | -0.244
MDN1_Q9NU22_333_SLQTLAMAVASQNAVLLEGPIGCGK (UniProt Q9NU22) | -0.0868 | -0.0522
MCM2_P49736_661_FDILCVVR (UniProt P49736) | 0.12 | 0.326
ME2_P23368_190_LCLYTACAGIRPDR (UniProt P23368) | -0.0206 | 0.152
MEFV_O15553_773_NTAPLTICPVGGQGPD (UniProt O15553) | -0.315 | -0.444
MED30_Q96HR3_34_EVNTASLCR (UniProt Q96HR3) | -0.0324 | -0.17
METAP1_P53582_255_LVQTTYECLMQAIDAVKPGVR (UniProt P53582) | -0.0413 | -0.0427
MGAT2_Q10469_440_DHELCK (UniProt Q10469) | 0.242 | 0.194
ME2_P23368_198_CLPVCIDVGTDNIALLK (UniProt P23368) | 0.165 | 0.162
MDN1_Q9NU22_2784_EVQTVSEHIQNCLGSQTGGFAGIK (UniProt Q9NU22) | -0.0547 | 0.134
MDC1_Q14676_128_DQELILFADLLCQYHR (UniProt Q14676) | -0.0277 | 0.28
MCM3AP_O60318_439_SESTDSLGGLSPSEVTAIQCK (UniProt O60318) | -0.0427 | -0.262
MED14_O60244_779_LYECVLEFAR (UniProt O60244) | 0.0771 | 0.172
MDN1_Q9NU22_4604_HLFFSQSCSLLVR (UniProt Q9NU22) | 0.142 | 0.423
MCM5_P33992_197_KCNTDQAGRPK (UniProt P33992) | -0.16 | -0.194
